The supplement of paper PMC10849652
Some of the results follow. Residues, ends and D or L forms follow the SMILES beside them. *: point of attachment. Cbz = O=C(OCc1ccccc1)*

By UniProt entry, the sequences of proteins in these tests, tags left out. Where a name states a change or a piece, a line headed by the entry shows the natural chain unless it says otherwise.
UniProt Q9P016: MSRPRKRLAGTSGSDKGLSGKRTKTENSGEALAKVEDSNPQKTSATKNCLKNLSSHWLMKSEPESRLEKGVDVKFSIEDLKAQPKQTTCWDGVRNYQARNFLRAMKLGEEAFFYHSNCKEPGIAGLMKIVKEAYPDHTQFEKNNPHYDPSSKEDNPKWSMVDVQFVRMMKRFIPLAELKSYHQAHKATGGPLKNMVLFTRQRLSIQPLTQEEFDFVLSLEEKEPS
UniProt Q9Y2W1: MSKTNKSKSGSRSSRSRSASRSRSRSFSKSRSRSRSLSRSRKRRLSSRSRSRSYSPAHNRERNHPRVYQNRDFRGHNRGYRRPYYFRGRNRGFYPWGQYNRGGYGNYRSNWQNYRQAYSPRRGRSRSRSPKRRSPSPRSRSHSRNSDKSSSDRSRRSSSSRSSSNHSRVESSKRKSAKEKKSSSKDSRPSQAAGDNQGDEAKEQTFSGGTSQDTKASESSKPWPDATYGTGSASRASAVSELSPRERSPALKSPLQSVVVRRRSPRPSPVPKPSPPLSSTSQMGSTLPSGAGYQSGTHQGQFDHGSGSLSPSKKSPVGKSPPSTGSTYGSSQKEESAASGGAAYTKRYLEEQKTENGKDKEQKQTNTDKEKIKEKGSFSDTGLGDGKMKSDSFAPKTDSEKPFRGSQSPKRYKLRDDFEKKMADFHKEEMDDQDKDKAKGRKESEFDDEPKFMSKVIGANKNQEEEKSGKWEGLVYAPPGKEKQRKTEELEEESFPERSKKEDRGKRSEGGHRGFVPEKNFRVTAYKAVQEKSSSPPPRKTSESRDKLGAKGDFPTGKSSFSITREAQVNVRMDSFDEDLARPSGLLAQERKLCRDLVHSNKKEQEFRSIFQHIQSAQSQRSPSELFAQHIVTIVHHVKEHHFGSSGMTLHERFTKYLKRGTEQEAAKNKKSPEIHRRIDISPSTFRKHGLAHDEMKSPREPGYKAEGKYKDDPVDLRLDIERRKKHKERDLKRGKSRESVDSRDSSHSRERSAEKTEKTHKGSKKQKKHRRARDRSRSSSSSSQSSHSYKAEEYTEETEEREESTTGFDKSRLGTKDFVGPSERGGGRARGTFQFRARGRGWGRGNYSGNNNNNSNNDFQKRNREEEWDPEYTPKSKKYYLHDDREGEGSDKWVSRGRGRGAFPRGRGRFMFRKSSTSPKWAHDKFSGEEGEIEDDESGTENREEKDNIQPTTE
UniProt Q9NZ01: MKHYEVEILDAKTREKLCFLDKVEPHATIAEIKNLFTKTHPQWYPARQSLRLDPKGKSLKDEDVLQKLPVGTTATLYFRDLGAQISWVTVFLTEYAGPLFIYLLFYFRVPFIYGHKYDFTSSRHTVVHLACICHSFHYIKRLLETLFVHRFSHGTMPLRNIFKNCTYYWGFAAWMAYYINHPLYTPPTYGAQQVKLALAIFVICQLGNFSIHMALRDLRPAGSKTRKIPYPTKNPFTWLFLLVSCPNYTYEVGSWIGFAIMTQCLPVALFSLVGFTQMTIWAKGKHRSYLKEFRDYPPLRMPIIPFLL
UniProt Q9H5Q4: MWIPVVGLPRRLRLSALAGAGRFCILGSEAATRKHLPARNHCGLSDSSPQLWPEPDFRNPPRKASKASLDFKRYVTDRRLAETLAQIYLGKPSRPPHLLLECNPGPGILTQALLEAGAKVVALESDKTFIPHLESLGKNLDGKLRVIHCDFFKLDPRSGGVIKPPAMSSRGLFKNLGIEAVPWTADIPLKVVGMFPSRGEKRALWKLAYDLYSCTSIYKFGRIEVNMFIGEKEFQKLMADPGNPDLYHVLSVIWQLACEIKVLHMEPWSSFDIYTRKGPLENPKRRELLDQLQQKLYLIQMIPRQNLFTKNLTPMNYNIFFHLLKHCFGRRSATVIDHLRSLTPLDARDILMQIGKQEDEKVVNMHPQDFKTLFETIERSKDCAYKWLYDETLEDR
UniProt Q00059: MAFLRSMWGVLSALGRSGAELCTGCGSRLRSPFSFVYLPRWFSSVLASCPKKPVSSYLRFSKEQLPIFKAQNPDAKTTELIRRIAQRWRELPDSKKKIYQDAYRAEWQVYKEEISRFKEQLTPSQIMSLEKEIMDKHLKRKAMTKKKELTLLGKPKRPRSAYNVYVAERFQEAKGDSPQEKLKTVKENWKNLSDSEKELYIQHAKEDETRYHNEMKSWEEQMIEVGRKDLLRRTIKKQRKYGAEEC
UniProt Q9BVV7: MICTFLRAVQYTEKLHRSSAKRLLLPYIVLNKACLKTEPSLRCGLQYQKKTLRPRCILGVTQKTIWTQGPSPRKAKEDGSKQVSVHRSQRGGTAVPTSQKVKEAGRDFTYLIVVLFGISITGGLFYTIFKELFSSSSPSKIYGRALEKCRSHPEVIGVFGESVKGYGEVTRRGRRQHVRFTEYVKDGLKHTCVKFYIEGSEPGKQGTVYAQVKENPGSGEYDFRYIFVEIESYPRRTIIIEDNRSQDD
UniProt Q9NUY8: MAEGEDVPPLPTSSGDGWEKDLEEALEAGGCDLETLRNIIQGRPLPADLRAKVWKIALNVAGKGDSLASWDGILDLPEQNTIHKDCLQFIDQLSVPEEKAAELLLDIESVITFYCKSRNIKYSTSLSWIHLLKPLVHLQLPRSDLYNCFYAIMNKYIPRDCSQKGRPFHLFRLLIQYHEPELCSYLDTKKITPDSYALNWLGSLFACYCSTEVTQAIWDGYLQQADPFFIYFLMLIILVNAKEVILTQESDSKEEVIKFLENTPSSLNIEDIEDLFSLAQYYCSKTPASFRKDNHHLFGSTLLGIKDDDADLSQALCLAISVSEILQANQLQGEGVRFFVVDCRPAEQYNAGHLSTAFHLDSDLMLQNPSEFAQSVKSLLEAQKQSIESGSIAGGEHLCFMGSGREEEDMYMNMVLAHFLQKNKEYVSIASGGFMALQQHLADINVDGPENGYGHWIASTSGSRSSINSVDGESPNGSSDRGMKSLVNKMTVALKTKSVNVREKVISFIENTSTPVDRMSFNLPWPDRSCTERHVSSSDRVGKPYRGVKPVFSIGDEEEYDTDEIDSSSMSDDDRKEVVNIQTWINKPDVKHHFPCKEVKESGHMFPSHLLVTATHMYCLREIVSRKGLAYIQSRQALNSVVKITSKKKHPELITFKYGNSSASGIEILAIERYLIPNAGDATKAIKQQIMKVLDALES
UniProt Q96BZ9: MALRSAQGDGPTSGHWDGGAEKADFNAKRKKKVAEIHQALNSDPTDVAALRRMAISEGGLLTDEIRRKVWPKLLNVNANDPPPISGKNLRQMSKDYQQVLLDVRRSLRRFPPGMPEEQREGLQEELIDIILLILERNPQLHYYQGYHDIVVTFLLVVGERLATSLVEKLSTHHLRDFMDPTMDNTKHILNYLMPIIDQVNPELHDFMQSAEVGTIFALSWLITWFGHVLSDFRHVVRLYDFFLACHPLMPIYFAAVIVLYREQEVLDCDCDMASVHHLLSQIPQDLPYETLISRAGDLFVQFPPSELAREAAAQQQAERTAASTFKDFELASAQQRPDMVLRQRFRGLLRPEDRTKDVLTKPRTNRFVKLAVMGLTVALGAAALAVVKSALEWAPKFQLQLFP
UniProt Q66K14, whole entry, looked up: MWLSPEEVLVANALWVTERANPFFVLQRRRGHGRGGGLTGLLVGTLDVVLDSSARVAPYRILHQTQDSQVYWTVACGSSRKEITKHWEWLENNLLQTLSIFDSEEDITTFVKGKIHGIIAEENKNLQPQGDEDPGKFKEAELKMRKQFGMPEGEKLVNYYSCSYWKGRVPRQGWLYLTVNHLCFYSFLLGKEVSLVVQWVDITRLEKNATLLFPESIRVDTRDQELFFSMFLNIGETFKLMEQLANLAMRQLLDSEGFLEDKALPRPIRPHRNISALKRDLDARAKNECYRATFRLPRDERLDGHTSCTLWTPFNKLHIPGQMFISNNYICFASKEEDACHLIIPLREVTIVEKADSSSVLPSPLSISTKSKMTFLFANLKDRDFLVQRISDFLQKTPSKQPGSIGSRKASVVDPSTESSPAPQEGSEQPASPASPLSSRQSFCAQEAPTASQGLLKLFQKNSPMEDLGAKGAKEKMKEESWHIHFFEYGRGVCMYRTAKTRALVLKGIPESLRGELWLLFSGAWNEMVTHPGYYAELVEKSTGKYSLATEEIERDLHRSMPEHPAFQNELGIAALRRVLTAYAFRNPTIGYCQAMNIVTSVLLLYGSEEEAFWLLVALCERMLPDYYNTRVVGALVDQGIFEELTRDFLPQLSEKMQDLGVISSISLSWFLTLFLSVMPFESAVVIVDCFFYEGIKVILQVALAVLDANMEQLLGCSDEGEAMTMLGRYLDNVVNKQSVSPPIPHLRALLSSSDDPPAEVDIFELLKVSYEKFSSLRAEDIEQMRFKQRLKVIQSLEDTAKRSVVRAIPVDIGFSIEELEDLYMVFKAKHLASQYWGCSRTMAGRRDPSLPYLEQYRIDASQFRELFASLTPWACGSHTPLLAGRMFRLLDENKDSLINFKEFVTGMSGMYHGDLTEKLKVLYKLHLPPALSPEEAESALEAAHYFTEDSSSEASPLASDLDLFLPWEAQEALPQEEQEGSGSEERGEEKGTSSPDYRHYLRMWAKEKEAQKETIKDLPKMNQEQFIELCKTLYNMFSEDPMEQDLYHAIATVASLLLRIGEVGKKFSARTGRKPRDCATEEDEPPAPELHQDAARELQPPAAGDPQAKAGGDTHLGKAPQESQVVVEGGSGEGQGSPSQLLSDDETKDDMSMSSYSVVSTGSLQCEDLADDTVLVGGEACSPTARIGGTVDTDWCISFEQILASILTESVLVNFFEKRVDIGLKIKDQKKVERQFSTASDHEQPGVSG
UniProt O14776: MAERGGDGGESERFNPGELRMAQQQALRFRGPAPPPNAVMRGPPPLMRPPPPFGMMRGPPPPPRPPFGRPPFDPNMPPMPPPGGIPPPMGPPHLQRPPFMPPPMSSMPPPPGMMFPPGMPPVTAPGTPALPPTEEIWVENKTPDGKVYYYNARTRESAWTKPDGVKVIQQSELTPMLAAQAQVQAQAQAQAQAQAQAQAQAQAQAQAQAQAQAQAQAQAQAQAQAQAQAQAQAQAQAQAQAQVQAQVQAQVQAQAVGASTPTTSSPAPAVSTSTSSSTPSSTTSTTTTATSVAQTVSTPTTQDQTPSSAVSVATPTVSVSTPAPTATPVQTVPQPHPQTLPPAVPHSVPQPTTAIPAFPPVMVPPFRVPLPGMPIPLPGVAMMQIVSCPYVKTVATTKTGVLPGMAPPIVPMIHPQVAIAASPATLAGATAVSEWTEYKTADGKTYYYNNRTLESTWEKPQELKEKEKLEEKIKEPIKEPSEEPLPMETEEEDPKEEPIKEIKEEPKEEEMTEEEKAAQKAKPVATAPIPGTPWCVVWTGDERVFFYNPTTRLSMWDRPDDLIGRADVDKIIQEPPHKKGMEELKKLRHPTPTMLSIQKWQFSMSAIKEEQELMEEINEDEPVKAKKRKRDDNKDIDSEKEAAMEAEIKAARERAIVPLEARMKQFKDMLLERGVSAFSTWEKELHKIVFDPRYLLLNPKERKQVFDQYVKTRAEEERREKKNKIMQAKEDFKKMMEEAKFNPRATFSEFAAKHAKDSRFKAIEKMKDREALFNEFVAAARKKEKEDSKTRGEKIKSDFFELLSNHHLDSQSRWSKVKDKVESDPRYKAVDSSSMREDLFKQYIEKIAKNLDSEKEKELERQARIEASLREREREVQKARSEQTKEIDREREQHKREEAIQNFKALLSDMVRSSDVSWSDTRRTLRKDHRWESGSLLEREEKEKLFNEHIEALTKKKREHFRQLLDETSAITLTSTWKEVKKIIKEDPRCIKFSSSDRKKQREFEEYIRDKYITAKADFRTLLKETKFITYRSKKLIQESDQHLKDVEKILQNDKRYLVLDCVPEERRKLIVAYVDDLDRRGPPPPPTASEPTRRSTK
UniProt Q9BU02: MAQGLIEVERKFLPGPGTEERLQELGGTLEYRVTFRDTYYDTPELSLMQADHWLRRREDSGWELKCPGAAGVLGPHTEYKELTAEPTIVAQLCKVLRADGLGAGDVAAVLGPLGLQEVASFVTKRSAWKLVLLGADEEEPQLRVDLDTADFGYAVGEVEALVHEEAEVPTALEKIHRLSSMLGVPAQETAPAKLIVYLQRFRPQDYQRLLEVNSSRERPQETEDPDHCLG
UniProt P36897: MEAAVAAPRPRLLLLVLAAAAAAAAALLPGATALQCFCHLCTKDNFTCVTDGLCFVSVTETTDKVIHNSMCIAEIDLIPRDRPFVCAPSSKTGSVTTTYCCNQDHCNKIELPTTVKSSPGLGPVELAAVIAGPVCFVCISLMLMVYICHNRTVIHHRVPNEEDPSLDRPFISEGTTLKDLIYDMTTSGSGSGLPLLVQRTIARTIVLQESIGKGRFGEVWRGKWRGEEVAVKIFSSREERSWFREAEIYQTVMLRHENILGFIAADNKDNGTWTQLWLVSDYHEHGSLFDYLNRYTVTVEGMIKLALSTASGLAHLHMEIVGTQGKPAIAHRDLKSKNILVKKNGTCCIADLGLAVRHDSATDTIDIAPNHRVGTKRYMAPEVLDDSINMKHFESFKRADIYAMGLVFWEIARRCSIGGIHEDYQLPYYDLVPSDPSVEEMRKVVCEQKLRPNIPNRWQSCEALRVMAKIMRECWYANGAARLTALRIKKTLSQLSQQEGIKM

Experiments:
Assay in all cases: log2 fold change, soluble protein after heating vs DMSO (PISA); higher = thermal stabilisation; K562 cells, 10 uM, 30 min; active = over 0.2 and 3.5 SD of the protein, either way, in both replicates (recomputed)
erlotinib = compound: C#Cc1cccc(Nc2ncnc3cc(OCCOC)c(OCCOC)cc23)c1 [erlotinib]
In short: (§1)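 Soluble protein was defined as the supernatant after 21,000xg for 90 min. It came from K562 cells at 2×10^6 cells/mL given 10 μM compound for 30 min, heated in aliquots for 3 min across 48°C-58°C, pooled, and extracted in PBS with 0.5% NP-40 at 4°C, and was quantified by TMTpro 16plex LC-MS/MS with equalised channel sums. Thermal stability against control samples, from duplicates, is reported as log2 fold change.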

[1] = compound: C/C(=N\NC(=O)C1=CC(=CC=C1)S(=O)(=O)N2CCOCC2)/C3=C(C=CC(=C3)Cl)O
In short: as §1

[2] = compound: C1=CC(=C(C=C1Cl)C2=NC3=NC=CN=C3C(=N2)NC4=CC=NC=C4)F
In short: as §1

[3] = compound: C1=CC(=CC=C1C2=NC3=C(N2)C=C(C=C3)C(=O)N)OC4=CC=C(C=C4)Cl
In short: as §1

[4] = compound: C1=CC2=C(C=CC(=C2)/C=C\3/C(=O)NC(=NCC4=CC=CS4)S3)N=C1
In short: as §1

[5] = compound: C1=CC2=NC=CN=C2C=C1/C=C/3\C(=O)NC(=O)S3
In short: as §1

[6] = compound: C1=CC=C(C=C1)C2=NC(=C(N2)C3=CC=NC=C3)C4=CC(=C(C=C4)Cl)O
In short: as §1

[7] = compound: C1=CC=C2C(=C1)C3=NNC4=CC=CC(=C43)C2=O
In short: as §1

[8] = compound: C1CCN(C1)C(=O)NC2=CC=CC(=C2)NC3=NC=C(C(=N3)NCCC4=CN=CN4)Br
In short: as §1

[9] = compound: C1CN(CCC1(CC2=CC=C(C=C2)Cl)N)C3=NC=NC4=C3C=CN4
In short: as §1

IRAK-1-4 Inhibitor I = compound: C1COCCN1CCN2C3=CC=CC=C3N=C2NC(=O)C4=CC(=CC=C4)[N+](=O)[O-] [IRAK-1-4 Inhibitor I]
In short: as §1

ibrutinib = compound: C=CC(=O)N1CCC[C@@H](n2nc(-c3ccc(Oc4ccccc4)cc3)c3c(N)ncnc32)C1 [ibrutinib]
In short: as §1

[10] = compound: CC(=O)c1cnc2ccc(-c3cc(Cl)c(O)c(Cl)c3)nc2c1N[C@H]1CC[C@H](CN(C)C)CC1
In short: as §1

ralimetinib = compound: CC(C)(C)Cn1c(N)nc2ccc(-c3[nH]c(C(C)(C)C)nc3-c3ccc(F)cc3)nc21 [ralimetinib]
In short: as §1

[11] = compound: CC(C)(O)CC(=O)NCCn1ccc2ncnc(Nc3ccc(Oc4cccc(C(F)(F)F)c4)c(Cl)c3)c21
In short: as §1

[12] = compound: CC(C)C1=C2N=C(C=C(N2N=C1)NCC3=CC=CC=C3)NCCCCCCN
In short: as §1

[13] = compound: CC(C)C[C@@H](C=O)NC(=O)[C@H](CC(C)C)NC(=O)[C@H](CC(C)C)NC(=O)OCc1ccccc1
In short: as §1

pinometostat = compound: CC(C)N(C[C@H]1O[C@@H](n2cnc3c(N)ncnc32)[C@H](O)[C@@H]1O)[C@H]1C[C@@H](CCc2nc3cc(C(C)(C)C)ccc3[nH]2)C1 [pinometostat]
In short: as §1

[14] = compound: CC1=C(C2=C(C=C1)C(=O)C3=CC=CC=C3N2CCCN)C
In short: as §1

[15] = compound: CC1=C(C(CC(=O)N1)C2=CC=C(C=C2)C(F)(F)F)C(=O)NC3=C(C=C4C(=C3)C=NN4)F
In short: as §1

Measured: log2 fold change

THYN1 (UniProt Q9P016)
inactive: erlotinib -0.061 | [1] 0.007 | [2] -0.041 | [3] 0.125 | [4] 0 | [5] 0.006 | [6] -0.032 | [7] 0.145 | [8] -0.002 | [9] -0.037 | IRAK-1-4 Inhibitor I -0.032 | ibrutinib -0.028 | [10] 0.039 | ralimetinib -0.01 | [11] 0.036 | [12] -0.046 | [13] 0.025 | pinometostat 0.004
active: [14] 0.331

TIAL1 isoform 2 (UniProt Q01085)
active: [14] 0.238
inactive: erlotinib 0.013 | [1] -0.004 | [2] 0.002 | [3] 0 | [4] 0.02 | [5] 0.008 | [6] -0.026 | [7] 0.018 | [8] 0.032 | [9] -0.004 | IRAK-1-4 Inhibitor I 0.044 | ibrutinib 0.011 | [10] -0.035 | ralimetinib -0.05 | [11] 0.001 | [12] 0.106 | [13] 0.019 | pinometostat -0.039

THRAP3 (UniProt Q9Y2W1)
active: [10] -0.581
inactive: erlotinib 0.081 | [1] 0.023 | [2] -0.071 | [3] 0.067 | [4] -0.094 | [5] -0.002 | [6] -0.097 | [7] -0.171 | [8] 0.038 | [9] -0.09 | IRAK-1-4 Inhibitor I -0.116 | ibrutinib 0.01 | ralimetinib -0.026 | [11] -0.032 | [12] -0.12 | [13] 0.075 | pinometostat 0.057 | [14] -0.018

TGDS (UniProt O95455)
inactive: erlotinib 0.012 | [1] 0.121 | [3] -0.025 | [4] 0.044 | [7] 0.08 | [8] -0.027 | [9] -0.045 | [10] 0.033 | [12] 0.056 | [15] 0.059 | [14] 0.047

TECR (UniProt Q9NZ01)
inactive: erlotinib -0.02 | [1] 0.042 | [2] 0.036 | [3] -0.059 | [4] 0.018 | [5] 0.024 | [6] 0.067 | [7] -0.059 | [8] 0.072 | [9] 0.045 | IRAK-1-4 Inhibitor I 0.04 | ibrutinib -0.059 | [10] 0 | ralimetinib -0.061 | [11] -0.107 | [13] 0.009 | pinometostat 0.024 | [14] 0.036
active: [12] -0.458

TFB2M (UniProt Q9H5Q4)
inactive: erlotinib 0.007 | [1] 0.094 | [2] 0.037 | [3] -0.043 | [4] 0.016 | [5] 0.019 | [6] -0.022 | [7] -0.019 | [8] 0.002 | [9] 0.007 | IRAK-1-4 Inhibitor I 0.037 | ibrutinib -0.029 | [10] -0.013 | ralimetinib -0.085 | [11] -0.136 | [12] -0.08 | [13] 0.02 | pinometostat 0.012 | [14] 0.005

TFAM (UniProt Q00059)
inactive: erlotinib -0.085 | [1] -0.071 | [2] -0.127 | [3] 0.031 | [4] -0.009 | [5] -0.022 | [6] -0.068 | [7] -0.05 | [8] 0.06 | [9] -0.078 | IRAK-1-4 Inhibitor I -0.047 | ibrutinib 0.03 | [10] 0.07 | ralimetinib 0.044 | [11] 0.043 | [12] 0.007 | [13] 0.056 | pinometostat 0.05
active: [14] -0.414

TIMM21 (UniProt Q9BVV7)
inactive: erlotinib 0.026 | [1] 0.068 | [2] 0.004 | [3] -0.008 | [4] 0.035 | [5] -0.001 | [6] -0.001 | [7] 0.081 | [8] -0.002 | [9] 0.021 | IRAK-1-4 Inhibitor I -0.009 | ibrutinib -0.02 | [10] -0.026 | ralimetinib -0.01 | [11] 0.011 | [12] -0.169 | [13] 0.099 | pinometostat -0.02 | [14] 0.063

TBC1D23 (UniProt Q9NUY8)
active: [12] -0.45
inactive: erlotinib 0.043 | [1] 0.012 | [2] 0.047 | [3] 0.067 | [4] 0.071 | [5] 0.021 | [6] -0.032 | [7] -0.054 | [8] -0.036 | [9] -0.025 | IRAK-1-4 Inhibitor I 0.062 | ibrutinib -0.02 | [10] -0.067 | ralimetinib 0.002 | [11] -0.098 | [13] 0.071 | pinometostat -0.046 | [14] 0.01

Two records picked at random from the list so far:
TIMM21 (UniProt Q9BVV7)
inactive: erlotinib 0.026 | [1] 0.068 | [2] 0.004 | [3] -0.008 | [4] 0.035 | [5] -0.001 | [6] -0.001 | [7] 0.081 | [8] -0.002 | [9] 0.021 | IRAK-1-4 Inhibitor I -0.009 | ibrutinib -0.02 | [10] -0.026 | ralimetinib -0.01 | [11] 0.011 | [12] -0.169 | [13] 0.099 | pinometostat -0.02 | [14] 0.063

TFB2M (UniProt Q9H5Q4)
inactive: erlotinib 0.007 | [1] 0.094 | [2] 0.037 | [3] -0.043 | [4] 0.016 | [5] 0.019 | [6] -0.022 | [7] -0.019 | [8] 0.002 | [9] 0.007 | IRAK-1-4 Inhibitor I 0.037 | ibrutinib -0.029 | [10] -0.013 | ralimetinib -0.085 | [11] -0.136 | [12] -0.08 | [13] 0.02 | pinometostat 0.012 | [14] 0.005

(list continues)

TBC1D14 (UniProt Q9P2M4)
inactive: erlotinib -0.317 | [1] 0.134 | [2] -0.07 | [3] 0.1 | [4] 0.188 | [6] -0.147 | [7] -0.113 | [8] -0.08 | [9] -0.016 | [10] -0.193 | ralimetinib -0.071 | [11] -0.123 | [12] -0.215 | [13] 0.352 | [14] 0.075

TBC1D20 isoform 3 (UniProt Q96BZ9)
inactive: erlotinib 0.022 | [1] 0.195 | [2] 0.094 | [3] 0.083 | [4] 0.047 | [5] -0.015 | [6] -0.048 | [7] -0.048 | IRAK-1-4 Inhibitor I 0.02 | ibrutinib 0.004 | [10] -0.124 | ralimetinib -0.104 | [11] -0.087 | [12] -0.099 | [13] -0.017 | pinometostat 0

TDRD7 (UniProt Q8NHU6)
inactive: erlotinib 0.074 | [1] 0.101 | [2] -0.036 | [3] 0.013 | [4] -0.045 | [6] 0.095 | [7] 0 | IRAK-1-4 Inhibitor I 0.087 | [10] -0.364 | ralimetinib -0.004 | [11] 0.488 | [12] 0.19 | [13] -0.079 | pinometostat -0.041

TBC1D9B (UniProt Q66K14)
inactive: erlotinib 0.07 | [1] 0.001 | [2] -0.087 | [3] 0.072 | [4] 0.151 | [5] -0.092 | [6] -0.011 | [7] 0.021 | [8] -0.055 | [9] -0.058 | IRAK-1-4 Inhibitor I 0.038 | ibrutinib 0.079 | [10] -0.075 | ralimetinib 0.071 | [11] 0.103 | [12] -0.133 | [13] 0.032 | pinometostat 0.051 | [14] -0.042

TCERG1 (UniProt O14776)
inactive: erlotinib 0.072 | [1] 0.154 | [2] 0.152 | [3] -0.017 | [4] 0.067 | [5] -0.022 | [6] 0.015 | [7] 0.027 | [8] -0.104 | [9] -0.029 | IRAK-1-4 Inhibitor I -0.062 | ibrutinib -0.073 | [10] -0.065 | ralimetinib -0.035 | [11] -0.172 | [12] -0.086 | [13] -0.041 | pinometostat -0.039 | [14] 0.062

TELO2 (UniProt Q9Y4R8)
inactive: erlotinib 0.043 | [1] 0.102 | [2] -0.185 | [3] -0.031 | [4] -0.039 | [5] 0.019 | [6] -0.037 | [7] 0.053 | [8] 0.046 | [9] -0.076 | IRAK-1-4 Inhibitor I -0.126 | ibrutinib -0.044 | [10] 0.008 | ralimetinib 0.103 | [11] 0 | [12] -0.375 | [13] 0.049 | pinometostat 0.204 | [14] 0.125

TBK1 (UniProt Q9UHD2)
inactive: erlotinib -0.042 | [1] 0.009 | [2] 0.003 | [3] -0.048 | [4] 0.044 | [5] 0.026 | [6] -0.082 | [7] 0.009 | [8] 0.029 | [9] -0.105 | IRAK-1-4 Inhibitor I -0.046 | ibrutinib -0.019 | [10] -0.162 | ralimetinib 0.024 | [11] -0.067 | [12] -0.208 | [13] 0.046 | pinometostat 0.087 | [14] -0.091

THTPA (UniProt Q9BU02)
inactive: erlotinib 0.08 | [1] -0.054 | [3] 0.167 | [4] 0.003 | [5] 0.046 | [6] 0.128 | [7] 0.075 | [8] 0.052 | [9] -0.029 | ibrutinib -0.119 | [10] 0.153 | ralimetinib 0.031 | [12] -0.233 | [13] -0.072 | [14] -0.049

TGFBR1 isoform 2 (UniProt P36897)
inactive: erlotinib -0.012 | [1] 0.084 | [3] -0.051 | [4] -0.072 | [5] 0.043 | [6] 0.161 | [7] 0.004 | [8] -0.019 | [9] 0.047 | IRAK-1-4 Inhibitor I -0.004 | ibrutinib 0.006 | ralimetinib 0.072 | [11] -0.043 | [12] 0.025 | [13] 0.049 | pinometostat -0.047 | [14] 0.019
active: [10] 0.329
